Data on one molecule can be found in patent US10066004B2 (ARIZONA CANCER THERAPEUTICS, LLC, priority 2010, dated 2018).

The subject of this series is Ecyl EGFR peptide. Kind of series: ITC binding experiments. The following applies: target at 500 uM.

Positions of bridges follow the written chain, without caps; N, C: chain ends. Non-standard residues stand in square brackets, D forms with d. Residues, ends and D or L forms follow the SMILES beside them. R8 = C=CCCCCCC[C@@](C)(N)C(=O)O; S5 = C=CCCC[C@](C)(N)C(=O)O

On to `CC[C@H](C)[C@H](NC(=O)[C@H](Cc1c[nH]cn1)NC(=O)[C@H](CCCNC(=N)N)NC(=O)[C@H](CCCNC(=N)N)NC(=O)[C@H](CCCNC(=N)N)NC(=O)[C@H](CCSC)NC(=O)[C@H](Cc1ccccc1)NC(=O)[C@H](C)NC(=O)[C@H](CCCNC(=N)N)NC(=O)[C@H](C)NC(=O)[C@H](CCC(N)=O)NC(=O)[C@H](CCCNC(=N)N)NC(=O)[C@H](C)NC(=O)[C@H](C)NC(=O)[C@H](C)NC(=O)[C@H](CCCNC(=N)N)NC(=O)[C@H](C)NC(=O)[C@@H](N)Cc1ccc(O)cc1)C(=O)N[C@]1(C)CCCCCCC=CCCC[C@@](C)(C(=O)N[C@@H](CC(C)C)C(=O)N[C@@H](CC(C)C)C(=O)N[C@@H](CCC(N)=O)C(=O)N[C@@H](CCC(=O)O)C(=O)N[C@@H](CCCNC(=N)N)C(=O)N[C@@H](CCC(=O)O)C(=O)O)NC(=O)[C@H](CCCNC(=N)N)NC(=O)[C@H](CC(C)C)NC(=O)[C@H]([C@@H](C)O)NC(=O)[C@H](CCCNC(=N)N)NC(=O)[C@H](CCCCN)NC(=O)[C@H](CCCNC(=N)N)NC1=O` [SAH-EJ1] (H-YARAAARQARAFMRRRHI[R8]RKRTLR[S5]LLQERE-OH; staple 19-26; N-terminus and C-terminus assumed), for which the “n (ITC stoichiometry)” value by setting is: (peptide at 100 uM) 0.523; (peptide at 150 uM) 0.437.
